Results as given in PubChem BioAssay AID330 (DTP/NCI, 2004).
The list shows only some results of the screen, not a fair sample: it is rich in T/C values a quarter to a half above the control, in often repeated tests (any T/C) and in doses without a T/C. Further doses and runs are listed elsewhere. T/C gives the treated animals as a percentage of the vehicle group. Some doses have a count of surviving animals in place of a T/C: the source holds a T/C of zero for them, seemingly a mark for toxic or unscored doses. Some doses without a T/C left all or most animals alive at the check, yet need not have been tolerated: survival well below the control is almost never listed, so the zero probably covers shortened survival too. Survivors were counted at the toxicity check, usually on the fifth day, unless a day is given; later deaths do not show. Schedules are NCI's codes, read here as Q, the interval in days (D) or hours (H), X, the number of doses. For survival time, this PubChem deposit counts one and a half times the control or more as active, and values a quarter to a half above the control carry no call in these data; other NCI protocols may use other cut-offs. Additions like (4×) give the number of equal values in this list. Some T/C values carry the count of animals alive at the toxicity check (mostly the fifth day); where none is given, no animal had died by that day. Some entries were tested several times; the results are listed from low to high.

System: P388 leukemia ip, CD2F1 mice, survival T/C
Experiment: NCI In Vivo Anticancer Drug Screen. Data for tumor model P388 Leukemia (intraperitoneal) in CD2F1 (CDF1) mice
Settings: T/C endpoint: median survival time, higher T/C = longer survival
[1] = dose: 10.0 mg/kg/injection, schedule: Q01DX009 (ip), vehicle: saline + alcohol

With `O=NN(CCCl)C(=O)NCCCl` the T/C (dose: 7.5 mg/kg/injection, schedule: Q01DX005 (ip), vehicle: saline + alcohol, evaluated on day 35) was 300 % of control, the T/C (dose: 7.5 mg/kg/injection, schedule: Q01DX005 (ip), vehicle: saline + alcohol, evaluated on day 60) was 221 and 241 % of control and the T/C (dose: 7.5 mg/kg/injection, schedule: Q01DX009 (ip), vehicle: saline + alcohol, evaluated on day 30) was 277 % of control. For the same molecule, the T/C (dose: 7.5 mg/kg/injection, schedule: Q01DX009 (ip), vehicle: saline + alcohol, evaluated on day 35) was 288 % of control, the T/C (dose: 7.5 mg/kg/injection, schedule: Q01DX009 (ip), vehicle: saline + alcohol, evaluated on day 60) was 255 and 293 % of control and the T/C (dose: 8.0 mg/kg/injection, schedule: Q01DX001 (ip), vehicle: saline + alcohol, evaluated on day 9) was 112 and 183 % of control. For the same molecule, the T/C (dose: 8.0 mg/kg/injection, schedule: Q01DX001 (ip), vehicle: saline + alcohol, evaluated on day 30) was 144 and 153 % of control, the T/C (dose: 8.0 mg/kg/injection, schedule: Q01DX001 (ip), vehicle: saline with Tween-80, evaluated on day 5) was 170 and 180 % of control and the T/C (dose: 8.0 mg/kg/injection, schedule: Q01DX001 (ip), vehicle: saline with Tween-80, evaluated on day 30) was 183 % of control. For the same molecule, the T/C (dose: 8.0 mg/kg/injection, schedule: Q01DX001 (ip), vehicle: saline with Tween-80, evaluated on day 60) was 184 % of control, the T/C (dose: 8.0 mg/kg/injection, schedule: Q01DX009 (ip), vehicle: Klucel (hydroxypropylcellulose) (HPC)) was 222, 234, 253, 277 % of control and the T/C (dose: 8.0 mg/kg/injection, schedule: Q01DX009 (ip), vehicle: saline + alcohol, evaluated on day 30) was 119, 129, 143, 214, 245 % of control. The T/C (dose: 8.0 mg/kg/injection, schedule: Q01DX009 (ip), vehicle: saline + alcohol, evaluated on day 35) was 326 % of control, the T/C (dose: 8.0 mg/kg/injection, schedule: Q01DX009 (ip), vehicle: saline + alcohol, evaluated on day 45) was 224 % of control and the T/C (dose: 8.0 mg/kg/injection, schedule: Q01DX009 (ip), vehicle: saline, evaluated on day 30) was 92, 123, 130, 219, 230, 245, 250, 270 (2×), 288, 291, 315 % of control. For the same molecule, the T/C (dose: 8.0 mg/kg/injection, schedule: Q01DX009 (ip), vehicle: saline, evaluated on day 60) was 223, 341, 519, 535 % of control, the T/C (dose: 10.0 mg/kg/injection, schedule: Q01DX001 (ip), vehicle: saline + alcohol, evaluated on day 30) was 144 and 168 % of control and the T/C (dose: 10.0 mg/kg/injection, schedule: Q01DX001 (ip), vehicle: saline + alcohol, evaluated on day 60) was 170 and 202 % of control. For the same molecule, the T/C (dose: 10.0 mg/kg/injection, schedule: Q01DX005 (ip), vehicle: saline + alcohol, evaluated on day 30) was 89, 126, 197, 203 (2×), 212 [5 of 6 alive], 218, 240, 254, 260, 265, 270, 273, 274, 285 (2×), 294, 297 (2×), 300 (4×), 309 % of control, the T/C (dose: 10.0 mg/kg/injection, schedule: Q01DX005 (ip), vehicle: saline + alcohol, evaluated on day 60) was 555 % of control and the survivor count (dose: 10.0 mg/kg/injection, schedule: Q01DX005 (ip), vehicle: saline + alcohol) was 6 of 6. The T/C [1] was 86, 91, 100, 126, 176, 188, 198, 228, 238, 265, 276 (2×), 285, 290, 294, 297 (2×), 300 (4×), 303, 309 % of control, the survivor count [1] was 6 of 6 and the T/C (dose: 15.0 mg/kg/injection, schedule: Q01DX005 (ip), vehicle: saline + alcohol, evaluated on day 30) was 130, 156 [5 of 6 alive], 202, 203, 220, 238, 265, 268, 270, 277, 283, 285 (2×), 294 (2×), 297 (3×), 300 (4×), 309 % of control. For the same molecule, the T/C (dose: 15.0 mg/kg/injection, schedule: Q01DX005 (ip), vehicle: saline + alcohol, evaluated on day 35) was 350 % of control, the T/C (dose: 15.0 mg/kg/injection, schedule: Q01DX005 (ip), vehicle: saline + alcohol, evaluated on day 60) was 109 and 550 % of control and the T/C (dose: 15.0 mg/kg/injection, schedule: Q01DX009 (ip), vehicle: saline + alcohol, evaluated on day 30) was 86, 87, 101, 110, 116, 125, 126, 128, 131, 132, 140, 158, 171, 172, 191, 194, 285, 294, 297, 300 % of control (3×). For the same molecule, the T/C (dose: 15.0 mg/kg/injection, schedule: Q01DX009 (ip), vehicle: saline + alcohol, evaluated on day 35) was 114 % of control, the T/C (dose: 15.0 mg/kg/injection, schedule: Q01DX009 (ip), vehicle: saline + alcohol, evaluated on day 60) was 106 and 112 % of control and the T/C (dose: 16.0 mg/kg/injection, schedule: Q01DX001 (ip), vehicle: saline + alcohol, evaluated on day 9) was 155 % of control (2×).
